Reference: PubChem BioAssay AID504444 (National Center for Advancing Translational Sciences (NCATS), 2011)
Hit rate of the full screen: of about 360,000 compounds, about 7,500 (2.1%) were called active. Inconclusive means that the source gave no clear call. Such entries were picked first, then a sample of the others. Calls follow the shape of the dose curve; as a rule, active = well fitted inhibition curve with a large enough effect; inconclusive = small, poorly fitted or top-dose-only effect, or effect the other way; inactive = flat fitted curve, though single readings scatter. Where the call is inconclusive, the potency comes from a doubtful curve fit.

Test: Nrf2 qHTS screen for inhibitors; also: nearly all actives have a fitted effect of over 60% in size
Conditions: A549 ARE-Fluc reporter, luciferase luminescence, 18-24 h; activity change, negative = inhibition: at 46 µM (top of the series)
Procedure, shortened: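 A549 ARE_Fluc cells (5000/well, 5% FBS OPTI-MEM) pre-incubated 2 h, then treated with compounds 18-24 h at 37C/5% CO2 in concentration-response. CellTiter-Fluor viability read first; BugLite luciferase luminescence after 15 min at room temperature gives Nrf2 activity.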
% is scaled to controls: 0 for no effect and ±100 for the full control effect; potency is read from the fitted curve at half-maximal effect.

Row | Structure (SMILES) | Potency | activity change, negative = inhibition
1 | COC(=O)C1=C(Nc2ccc(C)cc2)C=C(C)C(C(=O)OC)C1c1ccc(F)cc1 (centres undefined) | inconclusive: 13 µM [falling, partial curve, poor fit] | 
2 | O=C(CN(c1ccc(F)cc1)S(=O)(=O)c1ccc2c(c1)OCCO2)Nc1ccccc1 | inconclusive: 32.6 µM [activator, partial curve, poor fit] | 
3 | CC(C)c1nnc(NC(=O)c2cccnc2)s1 | inconclusive: 16.4 µM [activator, partial curve, poor fit] | 
4 | CCOC(=O)c1cn(Cc2ccccc2)nn1 | inconclusive: 13 µM [activator, partial curve, poor fit] | 
5 | CCCCCn1c(SCc2ccncc2)nc2cc(C(=O)NCc3ccco3)ccc2c1=O | inconclusive: 20.6 µM [falling, single point] | 
6 | Cc1cc(C)c2c(c1)cc(C)c1nnc(SCC(=O)Nc3ccc(S(=O)(=O)N4CCCCC4)cc3)n12 |  | inactive: -9.61%
7 | Cc1cc(C)c2c(=O)c3c(oc2c1)C(=O)N(Cc1ccc(F)cc1)C3c1cccc(O)c1 (centres undefined) | inconclusive: 29.1 µM [falling, single point] | 
8 | COc1cccc(C(=O)/C=C/c2ccc(N3CCCCC3)c([N+](=O)[O-])c2)c1 | inconclusive: 9.2 µM [falling, partial curve] | 
9 | COc1ccc(NC(=O)c2onc(C)c2Cl)cc1 | inconclusive: 29.1 µM [activator, single point] | 
10 | COc1ccc(C2SCC(=O)N2c2nc3ccccc3s2)cc1 (centres undefined) |  | inactive: 16.3%
11 | CCc1[nH]nc(C(=O)N2CCCC(C(=O)c3cccc(OC(C)C)c3)C2)c1C (centres undefined) | inconclusive: 8.2 µM [falling, partial curve, poor fit] | 
12 | CN(C)/C=C/C(=O)c1cc(F)cc(C(F)(F)F)c1 | inconclusive: 9.2 µM [activator, partial curve, poor fit] | 
13 | C#CC[N+]1(CC#Cc2ccccc2)CCCC1 | inconclusive: 25.9 µM [falling, single point] | 
14 | COc1cccc(/C=C/c2nc(C#N)c(N3CCCCC3)o2)c1 |  | inactive: -2.28%
15 | O=C(c1cnc2cc(-c3ccccc3)nn2c1)c1cc([N+](=O)[O-])ccc1O | inconclusive: 23.1 µM [falling, single point] | 
16 | CC(NC(=O)c1ccc2ccccc2n1)c1ccc(S(N)(=O)=O)cc1 (centres undefined) | inconclusive: 13 µM [activator, partial curve] | 
17 | O=C(CNS(=O)(=O)c1ccc(Br)s1)N1CCC(N2CCCCC2)CC1 | inconclusive: 13 µM [activator, partial curve, poor fit] | 
18 | O=C(C1CCCN(S(=O)(=O)c2cccc3nonc23)C1)N1CCN(c2cccc(Cl)c2)CC1 (centres undefined) | inconclusive: 16.4 µM [falling, partial curve] | 
19 | CCc1ccc(CSc2nc(-c3ccccc3OC)nc3c2Cc2c(CO)cnc(C)c2O3)cc1 | inconclusive: 23.1 µM [falling, single point] | 
20 | CCCCN(C(=O)c1ccc2ccccc2c1)c1c(N)n(CCCC)c(=O)[nH]c1=O | inconclusive: 29.1 µM [falling, single point] | 

Part of the list above in a different format.
Row,Structure (SMILES),Potency,"activity change, negative = inhibition"
13,C#CC[N+]1(CC#Cc2ccccc2)CCCC1,"inconclusive: 25.9 µM [falling, single point]",
14,COc1cccc(/C=C/c2nc(C#N)c(N3CCCCC3)o2)c1,,inactive: -2.28%
15,O=C(c1cnc2cc(-c3ccccc3)nn2c1)c1cc([N+](=O)[O-])ccc1O,"inconclusive: 23.1 µM [falling, single point]",
16,CC(NC(=O)c1ccc2ccccc2n1)c1ccc(S(N)(=O)=O)cc1 (centres undefined),"inconclusive: 13 µM [activator, partial curve]",
17,O=C(CNS(=O)(=O)c1ccc(Br)s1)N1CCC(N2CCCCC2)CC1,"inconclusive: 13 µM [activator, partial curve, poor fit]",
18,O=C(C1CCCN(S(=O)(=O)c2cccc3nonc23)C1)N1CCN(c2cccc(Cl)c2)CC1 (centres undefined),"inconclusive: 16.4 µM [falling, partial curve]",
19,CCc1ccc(CSc2nc(-c3ccccc3OC)nc3c2Cc2c(CO)cnc(C)c2O3)cc1,"inconclusive: 23.1 µM [falling, single point]",
20,CCCCN(C(=O)c1ccc2ccccc2c1)c1c(N)n(CCCC)c(=O)[nH]c1=O,"inconclusive: 29.1 µM [falling, single point]",

Following part

Row | Structure (SMILES) | Potency | activity change, negative = inhibition
21 | Cc1cccc(CSCCNC(=O)c2ccc(N(C)S(=O)(=O)c3ccccc3)cc2)c1 | inconclusive: 29.1 µM [falling, single point] | 
22 | COc1cc2nc(CN3CCN(S(=O)(=O)c4ccc(Br)cc4)CC3)[nH]c(=O)c2cc1OC | inconclusive: 18.4 µM [falling, single point] | 
23 | CSc1ccc(CCNC(=O)CCc2c(C)nc3c(-c4ccccc4)c(C)nn3c2C)cc1 | inconclusive: 29.1 µM [falling, single point] | 
24 | Cc1ccc(S(=O)(=O)N(C)C)cc1NC(=O)C(C)N(C)Cc1sccc1C (centres undefined) | active: 13 µM | 
25 | CC(C)(C)NC(=O)NCCc1ccccc1 | inconclusive: 1.84 µM [activator, full curve] | 
26 | Cc1ccccc1Cn1nc(C)c(NC(=O)c2cc(-c3ccc(F)cc3)on2)c1C |  | inactive: 5.95%
27 | COc1ccccc1N1CCN(C(=O)c2ccc(COc3cccc4c3OC(C)(C)C4)cc2)CC1 | inconclusive: 20.6 µM [falling, single point] | 
28 | COC(=O)c1ccc2c(=O)n(CCCCCC(=O)NCc3ccccc3)c(=O)[nH]c2c1 |  | inactive: 21.7%
29 | COc1cccc(CN(C)C(=O)c2ccc(OCC(=O)Nc3cccc(C(F)(F)F)c3)c(OC)c2)c1 | active: 4.61 µM | 
30 | CC1=CC(C)(C)N(C(=O)Nc2ccccc2)c2ccccc21 | inconclusive: 29.1 µM [activator, single point] | 
31 | CNC(=O)[C@H]1O[C@@H](n2cnc3c(NCc4cccc(I)c4)ncnc32)[C@H](O)[C@@H]1O | inconclusive: 29.1 µM [falling, single point] | 
32 | c1ccc(-c2nccc(-c3ccco3)n2)nc1 | inconclusive: 16.4 µM [activator, partial curve, poor fit] | 
33 | COc1ccc(-c2nc3ccccc3c(=O)n2CCOc2ccc(C)cc2C)cc1 | inconclusive: 3.66 µM [activator, partial curve, poor fit] | 
34 | O=C(/C=C/c1ccco1)Nc1cccc(C(=O)Nc2ccccc2C(=O)O)c1 |  | inactive: -13.6%
35 | CC(=O)c1ccc(NS(=O)(=O)c2cc3[nH]c(=O)c(=O)[nH]c3cc2C)cc1 | inconclusive: 29.1 µM [activator, single point] | 
36 | c1ccc(CCc2nc(-c3ccccn3)no2)cc1 | inconclusive: 13 µM [activator, partial curve] | 
37 | CC(CCC(C)C(C)(C)C)[C@@H]1CC[C@H]2C3C[C@H](OS(O)(=S)=S)[C@H]4C[C@H](OS(O)(=S)=S)[C@@H](OS(O)(=S)=S)C[C@]4(C)[C@H]3CC[C@]12C (some centres undefined) (tested in a mixture with another compound) | inconclusive: 23.1 µM [falling, partial curve, poor fit] | 
38 | COc1ccc(NC(=O)c2sc3nc(N4CCCC4)c4c(c3c2N)CC(C)(C)OC4)c(OC)c1 | inconclusive: 11.6 µM [falling, partial curve] | 
39 | COc1cc(/C=N/Nc2nc3c(c(=O)n(C)c(=O)n3C)n2Cc2ccccc2)ccc1OC(=O)c1ccco1 | inconclusive: 32.6 µM [falling, single point] | 
